Laboratory results reported in PubChem BioAssay AID2685 (National Center for Advancing Translational Sciences (NCATS), 2010).
Some of the results follow. The main result of the screen is listed elsewhere. These columns were measured beside it and carry no call. Most of these compounds were active or inconclusive in the main read-out, so they are no random draw. Potencies come from curve fits of mixed quality, noted in brackets.

Assay: qHTS Assay for Lipid Storage Modulators in Drosophila S3 Cells;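 for cell number change: cells counted by Cell Tracker Red CMTPX staining in the red channel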
Conditions: BODIPY lipid droplet fluorescence, 18-24 h; for cell number change: measured here: cell count max response, cells fed with added oleic acid
Outline: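 Laser-scanning cytometry quantifies lipid droplet accumulation (500–530 nm total intensity; droplet/cell object ratio) in oleic acid-fed (400 uM added) Drosophila S3 cells treated with a concentration series. 20 uM Triacsin C defined 100% inhibition.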

[1] = measured here: lipid fluorescence (Fed channel) AC50, cells fed with added oleic acid
[2] = measured here: cell number channel AC50, cells fed with added oleic acid

SMILES	cell number change [%]	AC50 [1]	AC50 [2]
COc1ccc(C2/C(=C(/O)c3ccccc3)C(=O)C(=O)N2c2ccccn2)cc1 (centres undefined)	6.74	6.51 µM [rising, partial curve, poor fit]	–
CCn1c(C(=O)O)c(CC(=O)NC2CCCCCC2)c2ccccc21	–	14.6 µM [rising, partial curve]	–
Cn1nc(Cc2n[nH]c(=S)n2C)c2ccccc2c1=O	-0.551	0.103 µM [rising, full curve, poor fit]	–
COC1=C(Nc2ccc(C)cc2)C(=O)c2ccccc2C1=O	-75.1	29.1 µM [falling, single point]	20.6 µM [falling, partial curve, poor fit]
O=C(C[n+]1cc(-c2ccc(F)cc2)n2c1CCC2)Nc1nc(-c2ccc(F)cc2)cs1	–	0.291 µM [rising, full curve]	–
Cc1cccc(N(CC(=O)N2CCOCC2)S(C)(=O)=O)c1C	-32.2	23.1 µM [falling, partial curve, poor fit]	0.58 µM [falling, full curve]
Cc1ccc(-n2ncc3c(SCC(=O)NNC(=O)C(C)C)ncnc32)cc1	22.4	0.13 µM [falling, full curve, poor fit]	–
CC1CCCN(S(=O)(=O)c2ccc(-c3ccc(=O)[nH]n3)o2)C1 (centres undefined)	14.5	–	–
CC(C)NC(=O)CN1C(=O)c2ccccc2S1(=O)=O	28.3	25.9 µM [rising, partial curve]	–
COc1ccccc1N1CCN(C(=O)C2CCN(S(=O)(=O)c3ccccc3F)CC2)CC1	-29.2	0.092 µM [falling, full curve, poor fit]	–
CC(C)c1cc(C(=O)Nc2cc(Br)ccc2O)no1	-0.369	25.9 µM [falling, partial curve]	–
CC(=O)c1cn(CC(=O)Nc2ccccc2)c2ccccc12	3.02	–	–
CCOc1ccc(NC(=O)N2CCCC2C(=O)NCC2CCCO2)cc1 (centres undefined)	27.9	0.13 µM [rising, full curve, poor fit]	–
O=C(O)c1cccc(Nc2nc(-c3cccnc3)nc3ccccc23)c1	–	4.61 µM [rising, partial curve]	–
CCOC(=O)N1CCN(c2nc(N(c3ccccc3)c3ccccc3)nc(-n3ccnc3)n2)CC1	19.5	–	–
Cc1ccccc1NC(=O)NCCN1C(=O)C2C3C=CC(C3)C2C1=O (centres undefined)	-36.4	0.00517 µM [rising, full curve, poor fit]	11.6 µM [falling, single point]
Cc1ccc(-c2nc3sc(C#N)c(N)n3c(=O)c2C#N)cc1	24.2	–	–
COc1ccccc1NC(=O)CN1C(=O)COc2ccc(C)cc21	-0.895	4.61 µM [rising, full curve, poor fit]	–
COc1cccc(NC(=O)C(=O)NCC2CCCN2S(=O)(=O)c2ccccc2)c1 (centres undefined)	–	–	2.31 µM [rising, partial curve, poor fit]
CCc1ccc(NC(=S)Nc2ccc3cn[nH]c3c2)cc1	13.2	3.66 µM [rising, full curve]	–

2 of the compounds above, as comma-separated lines.
SMILES,cell number change [%],AC50 [1],AC50 [2]
Cn1nc(Cc2n[nH]c(=S)n2C)c2ccccc2c1=O,-0.551,"0.103 µM [rising, full curve, poor fit]",–
CC1CCCN(S(=O)(=O)c2ccc(-c3ccc(=O)[nH]n3)o2)C1 (centres undefined),14.5,–,–

More records follow:

SMILES	cell number change [%]	AC50 [1]	AC50 [2]
Cc1cc(C)c(NC(=O)c2ccoc2C)c(C)c1	–	0.92 µM [rising, partial curve]	0.231 µM [rising, partial curve]
O=C1CSC(c2cccc([N+](=O)[O-])c2)N1CCN1CCCCC1 (centres undefined)	-4.64	–	–
COc1ccc(Cn2nnc3c(C)n[nH]c(=O)c32)cc1	-18.4	5.8 µM [falling, full curve]	–
Cc1noc(C)c1S(=O)(=O)N1CCCN(C(=O)/C=C/c2ccccc2F)CC1	-30.1	4.11 µM [falling, single point]	23.1 µM [falling, partial curve]
Cc1cccc(C)c1-n1nnnc1SCSc1nnnn1-c1c(C)cccc1C	–	6.51 µM [rising, partial curve, poor fit]	–
CCCCOC(=O)Nc1ccc(C(=O)OC)cc1	0.898	0.82 µM [rising, full curve, poor fit]	–
Cn1c(=O)n(Cc2ccccc2F)c2ccccc21	-15.2	–	3.66 µM [falling, single point]
Cc1cccc(-c2nsc(SCC(=O)NCC3CCCO3)n2)c1 (centres undefined)	1.8	–	–
COc1ccc(CC(=O)Nc2cccc(-c3nnc(-c4ccccc4)o3)c2)cc1OC	–	0.146 µM [rising, full curve, poor fit]	0.103 µM [rising, full curve, poor fit]
CC(C)n1ncc2c(C(=O)Nc3ccc(S(N)(=O)=O)cc3)cc(C3CC3)nc21	16.5	6.51 µM [rising, single point]	–
O=C(Nc1ccc(O)cc1)c1cc2n(n1)C(C(F)(F)F)CC(c1ccco1)N2 (centres undefined)	-34.1	–	23.1 µM [falling, single point]
O=C(O)c1ccc(CNCc2ccc(Cl)cc2Cl)cc1	-24	3.26 µM [falling, full curve]	3.26 µM [falling, single point]
COc1ccc(CNC(=O)C2CCN(c3nccs3)CC2)cc1	1.03	4.11 µM [falling, partial curve, poor fit]	–
CC(=O)c1ccc(N2CCN(C(=O)Nc3cccc(F)c3)CC2)cc1	111	–	–
COCCCNC(=S)N(Cc1ccccc1)Cc1ccc(F)cc1	4.4	–	–
CCOC(=O)c1c(CSc2ccsc2)n(C)c2cc(Br)c(O)c(CN(C)C)c12	-0.12	0.00461 µM [falling, full curve, poor fit]	–
Cc1c(CNC(=O)c2nn3c(c2Cl)NC(c2ccccc2)CC3C(F)(F)F)cnn1C (centres undefined)	-19	0.00411 µM [rising, full curve, poor fit]	–
COCCNC(=O)c1ccccc1NC(=O)CN(c1ccc2c(c1)OCO2)S(C)(=O)=O	–	6.51 µM [rising, partial curve]	2.06 µM [rising, partial curve]
O=C(Nc1ccc2c(c1)OCO2)c1ccc2nc[nH]c2c1	–	–	0.092 µM [rising, full curve, poor fit]
